Reference: paper PMC4336944
These are yes or no findings as the source states them, for the method shown. Binding seen in cells or lysates may run through a third protein. Some results given as binding are weak or reduced against the parent protein; the word gives no strength.

Protein sequences, listed by entry. Tags and fused reporters are not part of them.
UniProt Q12923: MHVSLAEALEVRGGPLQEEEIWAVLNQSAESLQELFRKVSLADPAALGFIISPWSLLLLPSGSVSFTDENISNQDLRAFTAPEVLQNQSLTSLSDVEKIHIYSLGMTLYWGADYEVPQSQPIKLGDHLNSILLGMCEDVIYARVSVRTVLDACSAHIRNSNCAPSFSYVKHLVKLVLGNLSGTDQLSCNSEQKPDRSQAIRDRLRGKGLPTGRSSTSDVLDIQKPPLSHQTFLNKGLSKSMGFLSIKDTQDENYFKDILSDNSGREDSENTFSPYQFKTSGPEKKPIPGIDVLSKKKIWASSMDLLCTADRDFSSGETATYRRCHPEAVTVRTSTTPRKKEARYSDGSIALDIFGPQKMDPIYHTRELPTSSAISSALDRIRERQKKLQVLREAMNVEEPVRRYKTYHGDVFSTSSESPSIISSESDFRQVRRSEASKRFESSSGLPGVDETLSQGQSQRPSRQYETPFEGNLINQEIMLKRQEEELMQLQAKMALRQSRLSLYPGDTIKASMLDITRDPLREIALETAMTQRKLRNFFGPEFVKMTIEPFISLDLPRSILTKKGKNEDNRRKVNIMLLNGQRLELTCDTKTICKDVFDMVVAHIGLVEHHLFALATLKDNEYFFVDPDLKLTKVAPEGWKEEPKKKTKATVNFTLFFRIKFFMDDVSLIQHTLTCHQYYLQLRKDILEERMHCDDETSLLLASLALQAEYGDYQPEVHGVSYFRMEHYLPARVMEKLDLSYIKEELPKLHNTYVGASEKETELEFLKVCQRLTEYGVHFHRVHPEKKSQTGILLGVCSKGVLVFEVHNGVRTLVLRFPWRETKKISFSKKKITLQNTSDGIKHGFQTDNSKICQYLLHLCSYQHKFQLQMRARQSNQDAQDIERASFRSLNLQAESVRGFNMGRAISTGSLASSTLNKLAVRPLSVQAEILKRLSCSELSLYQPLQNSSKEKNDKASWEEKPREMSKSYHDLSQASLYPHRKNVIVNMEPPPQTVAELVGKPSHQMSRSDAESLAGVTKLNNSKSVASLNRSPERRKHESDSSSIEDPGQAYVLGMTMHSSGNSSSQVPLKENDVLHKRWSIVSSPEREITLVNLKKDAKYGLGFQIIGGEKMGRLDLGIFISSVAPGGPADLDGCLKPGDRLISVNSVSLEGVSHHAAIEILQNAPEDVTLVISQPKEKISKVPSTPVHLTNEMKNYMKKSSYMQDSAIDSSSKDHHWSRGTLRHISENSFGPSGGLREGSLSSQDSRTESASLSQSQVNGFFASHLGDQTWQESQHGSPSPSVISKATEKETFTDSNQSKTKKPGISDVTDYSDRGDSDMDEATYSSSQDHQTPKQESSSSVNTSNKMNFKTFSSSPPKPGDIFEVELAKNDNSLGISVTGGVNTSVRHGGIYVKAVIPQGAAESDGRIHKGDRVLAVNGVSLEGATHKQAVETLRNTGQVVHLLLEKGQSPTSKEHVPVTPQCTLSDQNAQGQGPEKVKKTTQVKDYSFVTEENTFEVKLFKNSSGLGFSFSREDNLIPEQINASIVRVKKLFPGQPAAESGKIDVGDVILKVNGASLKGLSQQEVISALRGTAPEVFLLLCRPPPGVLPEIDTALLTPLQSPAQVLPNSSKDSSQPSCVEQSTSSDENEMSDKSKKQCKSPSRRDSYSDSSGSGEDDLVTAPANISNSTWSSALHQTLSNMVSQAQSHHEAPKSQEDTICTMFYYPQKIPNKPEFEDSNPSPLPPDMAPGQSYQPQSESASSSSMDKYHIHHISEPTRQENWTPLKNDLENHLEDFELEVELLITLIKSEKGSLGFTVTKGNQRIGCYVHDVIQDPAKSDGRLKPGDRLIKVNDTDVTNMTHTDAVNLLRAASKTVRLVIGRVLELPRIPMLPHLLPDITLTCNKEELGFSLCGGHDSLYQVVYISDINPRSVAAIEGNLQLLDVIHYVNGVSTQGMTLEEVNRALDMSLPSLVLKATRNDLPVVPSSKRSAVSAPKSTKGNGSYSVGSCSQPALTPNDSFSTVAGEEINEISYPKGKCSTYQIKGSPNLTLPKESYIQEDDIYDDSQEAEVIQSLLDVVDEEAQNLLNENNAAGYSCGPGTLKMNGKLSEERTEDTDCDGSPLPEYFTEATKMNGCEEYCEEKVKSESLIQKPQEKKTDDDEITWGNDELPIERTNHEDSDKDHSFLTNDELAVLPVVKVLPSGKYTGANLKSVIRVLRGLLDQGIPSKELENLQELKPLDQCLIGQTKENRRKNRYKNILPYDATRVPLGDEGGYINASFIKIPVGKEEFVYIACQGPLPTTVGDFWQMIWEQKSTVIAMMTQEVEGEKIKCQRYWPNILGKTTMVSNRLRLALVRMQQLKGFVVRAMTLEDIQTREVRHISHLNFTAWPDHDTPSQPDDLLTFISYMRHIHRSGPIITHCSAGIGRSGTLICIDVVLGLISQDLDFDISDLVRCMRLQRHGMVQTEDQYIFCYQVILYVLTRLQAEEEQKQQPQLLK

Columns and labels:
[1] = molecular target: T1, Flexi-cloned Halo-TNIP2 (with the C-terminal valine cloning scar), transiently expressed from the CMV promoter (human) (UniProt Q8NFZ5); assay: pull-down; Halo affinity purification from whole cell extracts of transfected HEK293T cells, TEV eluates analysed by SDS-PAGE and Western blotting (anti-PTPN13, anti-TNIP2, anti-FLAG)
T1 sequence: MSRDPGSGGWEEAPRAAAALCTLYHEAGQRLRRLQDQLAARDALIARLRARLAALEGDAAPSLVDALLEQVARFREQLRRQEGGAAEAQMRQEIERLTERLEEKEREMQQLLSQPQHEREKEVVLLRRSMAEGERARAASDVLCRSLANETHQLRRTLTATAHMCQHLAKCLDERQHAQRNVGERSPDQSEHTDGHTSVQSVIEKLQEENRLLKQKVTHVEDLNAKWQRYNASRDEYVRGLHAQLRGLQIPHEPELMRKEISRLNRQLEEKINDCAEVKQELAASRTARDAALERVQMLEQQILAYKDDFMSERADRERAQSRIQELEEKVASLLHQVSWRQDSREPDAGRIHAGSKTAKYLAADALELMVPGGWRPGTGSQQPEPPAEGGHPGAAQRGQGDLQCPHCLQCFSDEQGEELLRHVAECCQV

[2] = molecular target: T2, Halo-TNIP2 without the C-terminal valine (human) (UniProt Q8NFZ5); assay: as above
T2 sequence: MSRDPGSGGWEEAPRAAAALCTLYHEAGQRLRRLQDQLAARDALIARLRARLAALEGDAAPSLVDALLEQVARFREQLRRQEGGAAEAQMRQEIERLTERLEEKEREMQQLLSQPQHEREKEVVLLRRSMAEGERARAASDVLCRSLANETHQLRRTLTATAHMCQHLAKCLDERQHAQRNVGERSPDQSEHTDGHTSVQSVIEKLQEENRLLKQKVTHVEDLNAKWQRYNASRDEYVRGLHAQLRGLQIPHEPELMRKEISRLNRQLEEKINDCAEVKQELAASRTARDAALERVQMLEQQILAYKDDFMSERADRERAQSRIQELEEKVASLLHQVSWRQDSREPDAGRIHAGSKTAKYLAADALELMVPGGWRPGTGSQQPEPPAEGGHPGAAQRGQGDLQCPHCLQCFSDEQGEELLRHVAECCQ

binding [1]: binds
binding [2]: no binding
Substance: PTPN13, endogenous (from UniProt Q12923 1-2485)
